From paper PMC10214260

Protein sequences, listed by entry. Tags and fused reporters are not part of them.
UniProt P30536: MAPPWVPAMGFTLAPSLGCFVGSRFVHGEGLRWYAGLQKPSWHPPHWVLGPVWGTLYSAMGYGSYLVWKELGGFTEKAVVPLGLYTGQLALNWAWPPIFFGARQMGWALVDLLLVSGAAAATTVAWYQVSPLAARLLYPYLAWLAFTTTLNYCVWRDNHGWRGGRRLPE

Target: translocator protein (TSPO), 18 kDa, mitochondrial (human (endogenous in HCCLM3 and MHCC97H)) (UniProt P30536)
Assay: affinity purification with mass spectrometry; IP with TSPO antibody in HCCLM3 and MHCC97H cells, silver staining, mass spectrometry

P62 (from UniProt Q13501 1-440) was tested, and the binding was “binds”.

No constants are given. Whether binding was seen depends on the method and setting. Binding seen in cells or lysates may run through a third protein. These calls come from enrichment with a bait or labelling near it, and not all partners need be listed.
